# Assay results reported in the supplement of paper PMC3334620.
# Whole data set: some 33,000 sequences, median “E-score (-0.5 to 0.5)” near -0.0059, cut for the highest 2% near 0.26. This is one part of the list.
# Biological target: T1, Cin5 (UniProt P40917)
# T1 sequence: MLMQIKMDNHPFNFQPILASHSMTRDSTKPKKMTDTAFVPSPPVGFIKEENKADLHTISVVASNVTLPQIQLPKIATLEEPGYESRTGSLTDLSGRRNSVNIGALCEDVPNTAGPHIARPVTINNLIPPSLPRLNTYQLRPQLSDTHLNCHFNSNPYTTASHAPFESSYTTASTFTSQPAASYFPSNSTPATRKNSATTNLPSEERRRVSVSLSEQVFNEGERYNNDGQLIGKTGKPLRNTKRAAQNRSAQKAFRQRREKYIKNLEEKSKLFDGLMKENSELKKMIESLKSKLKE
# Assay: PBM E-score (8-mer binding enrichment) (E-score (-0.5 to 0.5)); higher = stronger / more preferred TF binding
# Conditions: protein concentration: 100 nM; construct: GST-full length
# Method: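 Universal 'all 10-mer' protein binding microarrays (Agilent AMADID 015681) probed with GST-tagged S. cerevisiae TFs (full-length or DBD) made by in vitro transcription/translation (PURExpress), about 100-200 nM. Bound TF was detected with fluorescent anti-GST. Each ungapped 8-mer (which stands for itself and its reverse complement) is scored by the PBM enrichment score (E-score), a modified Wilcoxon-Mann-Whitney statistic from -0.5 to +0.5, computed with the Universal PBM Analysis Suite. Scale: above 0.35 generally sequence-specific binding.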
row,Sequence,PBM E-score
1,CAGCAACA,0.0911
2,ATCAATCG,0.159
3,CCGGGCAC,-0.124
4,AGGCACCC,-0.247
5,AAGGCAGC,-0.0607
6,ACATATTG,0.0935
7,CACCCGGG,-0.168
8,CCAGAAAG,0.0242
9,AGCTTAGA,0.166
10,AGGTGATA,-0.0057
11,CGTCAACA,-0.128
12,CAAGAGTG,-0.156
13,AGCTTACT,0.201
14,TACGAAGA,0.0419
15,CCTGCTTC,-0.193
16,CATATGCA,0.0719
17,GTGCAAAC,0.00041
18,GGAAGGCC,-0.25
19,ACCCAAAG,-0.124
20,GTGTAGCA,-0.113
21,CGGGAGCC,-0.238
22,CCTGTCCG,-0.174
23,ATTCGTTG,0.162
24,GATGGGAC,-0.0483
25,GATGTAAC,0.071

row,Sequence,PBM E-score
1,ATGGTCTG,0.0201
2,CATTCGAA,0.124
3,ATGCCGTC,-0.0719
4,GCTTAATA,0.207
5,AAACGGGC,-0.0703
6,TCACTCAA,0.12
7,GCTTACCC,0.00966
8,AAGTATGC,-0.0503
9,ATATTTCG,0.242
10,CAACTCCG,-0.0459
11,AGCTAAGC,0.116
12,AACGTAGA,0.0698
13,CTCTTGCC,-0.143
14,ATCCGCAA,0.0144
15,AAAGCTCC,-0.131
16,AACACTCC,0.136
17,AACGGGTG,0.0993
18,ACCCGCTG,-0.114
19,CCCCGGCG,-0.256
20,CTCCGACC,-0.274
21,GAATGAAA,0.0982
22,CTTATAAG,-0.0612
23,CGGTGTCA,-0.17
24,ACTAGATG,-0.00897
25,CCTGCCAC,-0.0959

row,Sequence,PBM E-score
1,TCCGACAA,-0.0569
2,CTTTTCGC,0.0357
3,TCAAAACA,0.151
4,AATTTGTC,0.114
5,ATGCTCTA,-0.161
6,CGGGTGAG,-0.099
7,TATAAGAA,0.173
8,AGGTGCCG,-0.0281
9,GCCGAAGC,-0.165
10,CCGTAGAG,-0.26
11,ATGCCCAG,-0.161
12,CGCTAAAC,-0.16
13,CAGTAAGC,0.253
14,CGGGCATC,-0.28
15,CGGAAGTA,0.0445
16,GATAATAA,0.199
17,CCCCACCG,-0.0344
18,GATATTGC,0.132
19,AATGAGCA,0.0395
20,AGCCCCAG,-0.0735
21,GCGAAGAC,-0.146
22,CGTTCTTC,0.0221
23,GAAAACCC,0.0584
24,GTTCACCA,-0.0455
25,AATTCATC,0.0433

row,Sequence,PBM E-score
1,ATTCAAAC,0.0264
2,ACGGGAGA,-0.193
3,ACAGGTTA,-0.00071
4,CCCAACCA,0.0428
5,AGTAGTCG,-0.0294
6,TATGCTCA,0.132
7,ATGTCCAA,0.0429
8,TGCGTAAA,0.0908
9,CCTTGCAA,-0.163
10,GCTGTGAA,-0.00138
11,ATAGTTGG,-0.0107
12,AGTCCGAA,-0.103
13,GTGACGAA,0.0209
14,ACCGGGAC,-0.0537
15,CCCAAGGG,-0.307
16,AATAAGAG,0.146
17,AGGAGTAC,-0.164
18,AATTTTAT,0.228
19,CACCATTC,-0.0149
20,ACCAATGA,0.128
21,ACCATGCT,-0.0805
22,CAAGTTTC,0.0858
23,CTAGCTGC,-0.232
24,GCACTAGC,-0.125
25,CCGCCCTC,-0.0884

row,Sequence,PBM E-score
1,GACCAATA,0.0508
2,AGTGCCAT,-0.131
3,GGCTGCTA,-0.14
4,CCGTCGGA,-0.109
5,AGAGCAGC,-0.149
6,TCCATTCA,0.0889
7,CAACTCGG,0.059
8,GACTGACC,-0.307
9,ACCCACAA,0.185
10,AGCGGTCG,-0.291
11,ATGTTCTA,-0.0021
12,AAACTTGC,0.185
13,ACCTCCCA,-0.323
14,ATACGTCA,0.0869
15,ATCGGCCA,-0.105
16,ACCAGCCA,-0.114
17,CACGTACC,-0.0572
18,CGTGTCAC,-0.0988
19,GACGACGC,-0.118
20,AAGGCATT,-0.0905
21,CCTTATTA,0.254
22,AAAGGTGT,-0.0556
23,CAGGACTC,-0.136
24,AATTGACT,0.121
25,CCCCAGAG,-0.211

row,Sequence,PBM E-score
1,ACCCACTC,-0.00905
2,ATCGTCTC,-0.0356
3,ACTACTAC,0.00444
4,TGCATGCA,0.102
5,AGCTCGTA,-0.0127
6,CTTGTACC,0.00352
7,GCTTTCCC,-0.0623
8,CGGGTGTA,0.0316
9,TACAGCGA,-0.0916
10,ATTCAATG,0.141
11,AAATGGCT,0.109
12,AAGGTTAC,-0.028
13,GCCCGGCA,-0.234
14,ATGGGAGG,0.0204
15,CTCAACGA,-0.117
16,ATGACGCA,0.195
17,CGTGGCAC,-0.18
18,CCCAGCTC,-0.128
19,GAATCCTC,-0.19
20,CAGAGTCC,0.0247
21,CCCTAGCC,-0.0423
22,CTTTAGGC,-0.19
23,ACGTACAA,0.0354
24,AAGGTCGG,-0.093
25,AATAAGTG,0.0171

row,Sequence,PBM E-score
1,AGCTTCTA,-0.179
2,ACACATCT,0.0506
3,CCCACTAA,0.133
4,CTATTACC,-0.0809
5,ACGGGTAC,-0.139
6,AAGTAGAG,-0.126
7,GGGCTGAC,0.171
8,TAAAATGA,0.149
9,CCAGTGGC,-0.172
10,ACCGACTC,0.0464
11,CGTTCGAC,-0.14
12,TACCAGAA,0.21
13,AGAAATGA,0.0538
14,ATGACCCC,-0.0535
15,CTATGTGA,0.00689
16,CGAACATA,0.21
17,AGAACACA,0.0401
18,AGGTTAGC,-0.199
19,CAGTCAAG,0.0003
20,GCACCTAC,-0.243
21,TAGACCAA,0.138
22,GGATCCCA,-0.0297

# A portion from the list above:
row,Sequence,PBM E-score
17,CACGTACC,-0.0572
18,CGTGTCAC,-0.0988
19,GACGACGC,-0.118
20,AAGGCATT,-0.0905
21,CCTTATTA,0.254
22,AAAGGTGT,-0.0556
23,CAGGACTC,-0.136
24,AATTGACT,0.121
25,CCCCAGAG,-0.211
1,ACCCACTC,-0.00905
2,ATCGTCTC,-0.0356
3,ACTACTAC,0.00444
4,TGCATGCA,0.102
5,AGCTCGTA,-0.0127
6,CTTGTACC,0.00352
7,GCTTTCCC,-0.0623
8,CGGGTGTA,0.0316
9,TACAGCGA,-0.0916
10,ATTCAATG,0.141
11,AAATGGCT,0.109
12,AAGGTTAC,-0.028
13,GCCCGGCA,-0.234
14,ATGGGAGG,0.0204
15,CTCAACGA,-0.117
16,ATGACGCA,0.195
17,CGTGGCAC,-0.18
18,CCCAGCTC,-0.128
19,GAATCCTC,-0.19
20,CAGAGTCC,0.0247
21,CCCTAGCC,-0.0423
22,CTTTAGGC,-0.19
23,ACGTACAA,0.0354
24,AAGGTCGG,-0.093
25,AATAAGTG,0.0171
1,AGCTTCTA,-0.179
2,ACACATCT,0.0506
3,CCCACTAA,0.133
4,CTATTACC,-0.0809
5,ACGGGTAC,-0.139
6,AAGTAGAG,-0.126
7,GGGCTGAC,0.171
8,TAAAATGA,0.149
9,CCAGTGGC,-0.172
10,ACCGACTC,0.0464
11,CGTTCGAC,-0.14
12,TACCAGAA,0.21
13,AGAAATGA,0.0538
14,ATGACCCC,-0.0535
15,CTATGTGA,0.00689
16,CGAACATA,0.21
17,AGAACACA,0.0401
18,AGGTTAGC,-0.199
19,CAGTCAAG,0.0003
